Reference: article PMC9249674, “A small-molecule Skp1 inhibitor elicits cell death by p53-dependent mechanism” (iScience, 2022)
These are yes or no findings as the source states them, for the method shown. Binding seen in cells or lysates may run through a third protein. Some entries that bind do so weakly or less than the wild type. For some assays here: Sequences can lack the tags named with a protein.

Experiments:
[1] = target: Skp1 (endogenous, A549 cells) (human (endogenous in A549)) (UniProt P63208); test: co-IP; endogenous Skp1 immunoprecipitated (protein A/G Plus beads with antibody) from A549 lysates in TNE buffer, Western blot; cells untreated or treated with Z0933M (doses and times, 4 h and 12 h)
[2] = target: Flag-Skp1 WT (human) (UniProt P63208); test: co-IP; as a4, cells treated with Z0933M
[3] = target: Flag-Skp1 WT (human) (UniProt P63208); test: co-IP; A549 cells transiently transfected with Flag-Skp1 WT or mutant plasmids, anti-FLAG M2 magnetic beads, Western blot for endogenous F-box proteins
[4] = target: Flag-Skp1^F101A (human) (UniProt P63208); test: as above
[5] = target: Flag-Skp1^F139A (human) (UniProt P63208); test: as above
[6] = target: mCherry-Skp1 (N-terminally mCherry-fused Skp1, WT) (human) (UniProt P63208); test: FRET or BRET; cell-based FRET in HEK293 cells co-transfected with mCherry-Skp1 and copGFP-fused F-box protein, 48 hrs, 96-well format; also with Z0933M (4 hrs) or 6-OAP

B1: KDM2B (endogenous, A549 cells) (protein, UniProt Q8NHM5 1-1336)
chain: MAGPQMGGSAEDHPPRKRHAAEKQKKKTVIYTKCFEFESATQRPIDRQRYDENEDLSDVEEIVSVRGFSLEEKLRSQLYQGDFVHAMEGKDFNYEYVQREALRVPLIFREKDGLGIKMPDPDFTVRDVKLLVGSRRLVDVMDVNTQKGTEMSMSQFVRYYETPEAQRDKLYNVISLEFSHTKLEHLVKRPTVVDLVDWVDNMWPQHLKEKQTEATNAIAEMKYPKVKKYCLMSVKGCFTDFHIDFGGTSVWYHVFRGGKIFWLIPPTLHNLALYEEWVLSGKQSDIFLGDRVERCQRIELKQGYTFFIPSGWIHAVYTPVDSLVFGGNILHSFNVPMQLRIYEIEDRTRVQPKFRYPFYYEMCWYVLERYVYCVTQRSHLTQEYQRESMLIDAPRKPSIDGFSSDSWLEMEEEACDQQPQEEEEKDEEGEGRDRAPKPPTDGSTSPTSTPSEDQEALGKKPKAPALRFLKRTLSNESEESVKSTTLAVDYPKTPTGSPATEVSAKWTHLTEFELKGLKALVEKLESLPENKKCVPEGIEDPQALLEGVKNVLKEHADDDPSLAITGVPVVTWPKKTPKNRAVGRPKGKLGPASAVKLAANRTTAGARRRRTRCRKCEACLRTECGECHFCKDMKKFGGPGRMKQSCIMRQCIAPVLPHTAVCLVCGEAGKEDTVEEEEGKFNLMLMECSICNEIIHPGCLKIKESEGVVNDELPNCWECPKCNHAGKTGKQKRGPGFKYASNLPGSLLKEQKMNRDNKEGQEPAKRRSECEEAPRRRSDEHSKKVPPDGLLRRKSDDVHLRKKRKYEKPQELSGRKRASSLQTSPGSSSHLSPRPPLGSSLSPWWRSSLTYFQQQLKPGKEDKLFRKKRRSWKNAEDRMALANKPLRRFKQEPEDELPEAPPKTRESDHSRSSSPTAGPSTEGAEGPEEKKKVKMRRKRRLPNKELSRELSKELNHEIQRTENSLANENQQPIKSEPESEGEEPKRPPGICERPHRFSKGLNGTPRELRHQLGPSLRSPPRVISRPPPSVSPPKCIQMERHVIRPPPISPPPDSLPLDDGAAHVMHREVWMAVFSYLSHQDLCVCMRVCRTWNRWCCDKRLWTRIDLNHCKSITPLMLSGIIRRQPVSLDLSWTNISKKQLSWLINRLPGLRDLVLSGCSWIAVSALCSSSCPLLRTLDVQWVEGLKDAQMRDLLSPPTDNRPGQMDNRSKLRNIVELRLAGLDITDASLRLIIRHMPLLSKLHLSYCNHVTDQSINLLTAVGTTTRDSLTEINLSDCNKVTDQCLSFFKRCGNICHIDLRYCKQVTKEGCEQFIAEMSVSVQFGQVEEKLLQKLS
In the case of B1, the binding [1] is reported as “binds”.

B2: cyclin F (endogenous, A549 cells) (protein, UniProt P41002 1-786)
chain: MGSGGVVHCRCAKCFCYPTKRRIRRRPRNLTILSLPEDVLFHILKWLSVEDILAVRAVHSQLKDLVDNHASVWACASFQELWPSPGNLKLFERAAEKGNFEAAVKLGIAYLYNEGLSVSDEARAEVNGLKASRFFSLAERLNVGAAPFIWLFIRPPWSVSGSCCKAVVHESLRAECQLQRTHKASILHCLGRVLSLFEDEEKQQQAHDLFEEAAHQGCLTSSYLLWESDRRTDVSDPGRCLHSFRKLRDYAAKGCWEAQLSLAKACANANQLGLEVRASSEIVCQLFQASQAVSKQQVFSVQKGLNDTMRYILIDWLVEVATMKDFTSLCLHLTVECVDRYLRRRLVPRYRLQLLGIACMVICTRFISKEILTIREAVWLTDNTYKYEDLVRMMGEIVSALEGKIRVPTVVDYKEVLLTLVPVELRTQHLCSFLCELSLLHTSLSAYAPARLAAAALLLARLTHGQTQPWTTQLWDLTGFSYEDLIPCVLSLHKKCFHDDAPKDYRQVSLTAVKQRFEDKRYGEISQEEVLSYSQLCAALGVTQDSPDPPTFLSTGEIHAFLSSPSGRRTKRKRENSLQEDRGSFVTTPTAELSSQEETLLGSFLDWSLDCCSGYEGDQESEGEKEGDVTAPSGILDVTVVYLNPEQHCCQESSDEEACPEDKGPQDPQALALDTQIPATPGPKPLVRTSREPGKDVTTSGYSSVSTASPTSSVDGGLGALPQPTSVLSLDSDSHTQPCHHQARKSCLQCRPPSPPESSVPQQQVKRINLCIHSEEEDMNLGLVRL
With B2 the binding [2] was “no binding (condition: cells treated with Z0933M)”, the binding [3] was “binds” and the binding [4] was “binds”. The binding [5] was “binds” and the binding [1] was “binds”.

B3: NIPA-copGFP (C-terminally copGFP-fused NIPA) (protein, UniProt Q86WB0 1-502)
chain: MAAPCEGQAFAVGVEKNWGAVVRSPEGTPQKIRQLIDEGIAPEEGGVDAKDTSATSQSVNGSPQAEQPSLESTSKEAFFSRVETFSSLKWAGKPFELSPLVCAKYGWVTVECDMLKCSSCQAFLCASLQPAFDFDRYKQRCAELKKALCTAHEKFCFWPDSPSPDRFGMLPLDEPAILVSEFLDRFQSLCHLDLQLPSLRPEDLKTMCLTEDKISLLLHLLEDELDHRTDERKTTIKLGSDIQVHVTACILSVCGWACSSSLESMQLSLITCSQCMRKVGLWGFQQIESSMTDLDASFGLTSSPIPGLEGRPERLPLVPESPRRMMTRSQDATFSPGSEQAEKSPGPIVSRTRSWDSSSPVDRPEPEAASPTTRTRPVTRSMGTGDTPGLEVPSSPLRKAKRARLCSSSSSDTSSRSFFDPTSQHRDWCPWVNITLGKESRENGGTEPDASAPAEPGWKAVLTILLAHKQSSQPAETDSMSLSEKSRKVFRIFRQWESLCSC
B3 was tested, and the binding [6] was “binds”.

B4: NIPA (endogenous, A549 cells) (protein, UniProt Q86WB0 1-502)
chain: B3 chain
With B4 the binding [1] was “binds”.
